Reference: US20200225234A1
These are yes or no findings as the source states them, for the method shown. Some entries that bind do so weakly or less than the wild type. Tags and fused reporters may be left off the sequences shown.

Experiments:
His-MRS (human) [1] = biological target: T1, His-MRS (human) (UniProt P56192); assay: ELISA, coated His-MRS, one antibody concentration, absorbance at 450 nm
T1 sequence: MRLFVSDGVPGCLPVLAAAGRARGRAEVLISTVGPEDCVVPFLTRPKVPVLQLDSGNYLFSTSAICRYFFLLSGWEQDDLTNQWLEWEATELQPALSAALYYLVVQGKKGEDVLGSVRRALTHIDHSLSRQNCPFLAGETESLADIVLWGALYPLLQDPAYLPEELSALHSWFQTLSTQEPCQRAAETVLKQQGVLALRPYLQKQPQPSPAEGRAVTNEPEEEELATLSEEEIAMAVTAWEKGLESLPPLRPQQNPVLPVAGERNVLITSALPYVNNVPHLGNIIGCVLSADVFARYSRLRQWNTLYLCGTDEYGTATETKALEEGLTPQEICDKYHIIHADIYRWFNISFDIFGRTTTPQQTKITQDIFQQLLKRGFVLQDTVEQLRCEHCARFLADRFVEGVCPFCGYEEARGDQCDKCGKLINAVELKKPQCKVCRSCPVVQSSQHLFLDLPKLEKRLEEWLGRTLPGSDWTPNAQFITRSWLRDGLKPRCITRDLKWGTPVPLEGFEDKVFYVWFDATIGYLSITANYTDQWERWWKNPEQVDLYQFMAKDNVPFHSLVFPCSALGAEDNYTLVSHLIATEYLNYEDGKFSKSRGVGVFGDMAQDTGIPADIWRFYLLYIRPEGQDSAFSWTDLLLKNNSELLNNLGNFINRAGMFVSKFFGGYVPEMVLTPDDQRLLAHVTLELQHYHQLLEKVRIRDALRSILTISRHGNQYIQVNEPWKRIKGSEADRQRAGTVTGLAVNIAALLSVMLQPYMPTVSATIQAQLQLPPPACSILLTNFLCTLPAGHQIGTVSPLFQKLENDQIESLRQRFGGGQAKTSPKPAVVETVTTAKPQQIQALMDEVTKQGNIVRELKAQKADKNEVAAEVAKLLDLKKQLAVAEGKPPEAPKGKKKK

His-MRS (human) [2] = biological target: T1, His-MRS (human); assay: ELISA, protein coated at 1 ug/ml, antibody at 500 ng/ml

B1: 8A12 antibody (whole 8A12 IgG antibody) (antibody, V domains shown)
VH: DVKLQESGPGLVKPSQSLSLTCTVTGYSITSEYAWTWIRQFPGNKLEWMGYINYNGNTNLNPSLKSRISIIRDTSKNQFFLQLNSVTTEDTATYYCARSLWPRGWFAYWGQGTLVTVSA
VL: DIQMTQSPSSMYASLGERVTITCKASQDINSYLSWFQQKPGKSPKTLMYRANRLVDGVPSRFSGSGSGQDYSLTISSLEYEDMGIYYCLQYDEFPRTFGGGTKLEIKA
- binding (His-MRS (human) [1]): binds
- binding (His-MRS (human) [2]): binds
